Results as given in the supplement of paper PMC12819154, “High-throughput peptide-centric local stability assay extends protein–ligand identification to membrane proteins, tissues and bacteria” (Nature Structural & Molecular Biology, 2025).
The list shows a part of the results. Small differences around the control level are noise.

Sequences of proteins named here, by UniProt entry; tags and fusion partners are left off. A change or cut given only in a name is not applied to a line headed by its entry.
UniProt Q9UN37: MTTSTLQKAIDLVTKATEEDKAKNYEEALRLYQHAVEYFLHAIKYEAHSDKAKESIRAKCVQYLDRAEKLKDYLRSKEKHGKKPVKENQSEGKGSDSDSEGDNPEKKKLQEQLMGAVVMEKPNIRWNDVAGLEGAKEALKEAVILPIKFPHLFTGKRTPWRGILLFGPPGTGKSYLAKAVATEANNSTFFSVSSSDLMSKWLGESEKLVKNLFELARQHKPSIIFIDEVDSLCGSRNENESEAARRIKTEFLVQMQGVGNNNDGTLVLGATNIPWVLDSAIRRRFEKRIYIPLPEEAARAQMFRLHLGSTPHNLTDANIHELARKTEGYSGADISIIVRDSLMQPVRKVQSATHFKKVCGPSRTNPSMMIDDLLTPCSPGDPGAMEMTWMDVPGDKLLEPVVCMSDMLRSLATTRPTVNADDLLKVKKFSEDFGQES
UniProt Q9UJU2, whole entry: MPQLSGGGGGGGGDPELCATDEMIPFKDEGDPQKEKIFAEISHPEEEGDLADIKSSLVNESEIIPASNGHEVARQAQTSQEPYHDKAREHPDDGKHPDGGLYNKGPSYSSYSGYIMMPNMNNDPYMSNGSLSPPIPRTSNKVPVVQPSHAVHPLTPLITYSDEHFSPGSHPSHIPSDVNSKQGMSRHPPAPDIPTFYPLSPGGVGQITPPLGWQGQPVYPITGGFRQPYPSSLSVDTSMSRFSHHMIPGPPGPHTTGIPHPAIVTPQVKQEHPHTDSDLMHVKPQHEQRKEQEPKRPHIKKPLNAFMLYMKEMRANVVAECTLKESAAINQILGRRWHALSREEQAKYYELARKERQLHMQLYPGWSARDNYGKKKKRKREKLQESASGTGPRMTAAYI
UniProt Q9UPY6: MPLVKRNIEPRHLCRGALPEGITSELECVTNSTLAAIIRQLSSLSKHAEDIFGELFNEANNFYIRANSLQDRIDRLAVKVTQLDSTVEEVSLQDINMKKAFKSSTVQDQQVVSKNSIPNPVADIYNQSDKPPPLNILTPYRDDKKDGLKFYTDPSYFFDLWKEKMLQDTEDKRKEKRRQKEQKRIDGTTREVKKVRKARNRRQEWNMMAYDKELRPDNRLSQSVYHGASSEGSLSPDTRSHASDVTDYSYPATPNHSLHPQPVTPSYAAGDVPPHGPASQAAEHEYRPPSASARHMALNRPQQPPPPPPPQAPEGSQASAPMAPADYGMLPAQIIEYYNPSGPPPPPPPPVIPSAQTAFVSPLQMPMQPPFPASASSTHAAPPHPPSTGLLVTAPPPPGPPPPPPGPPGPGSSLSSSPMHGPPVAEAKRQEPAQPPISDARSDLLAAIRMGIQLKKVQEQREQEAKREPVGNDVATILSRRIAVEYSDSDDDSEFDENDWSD
UniProt Q9UPR0: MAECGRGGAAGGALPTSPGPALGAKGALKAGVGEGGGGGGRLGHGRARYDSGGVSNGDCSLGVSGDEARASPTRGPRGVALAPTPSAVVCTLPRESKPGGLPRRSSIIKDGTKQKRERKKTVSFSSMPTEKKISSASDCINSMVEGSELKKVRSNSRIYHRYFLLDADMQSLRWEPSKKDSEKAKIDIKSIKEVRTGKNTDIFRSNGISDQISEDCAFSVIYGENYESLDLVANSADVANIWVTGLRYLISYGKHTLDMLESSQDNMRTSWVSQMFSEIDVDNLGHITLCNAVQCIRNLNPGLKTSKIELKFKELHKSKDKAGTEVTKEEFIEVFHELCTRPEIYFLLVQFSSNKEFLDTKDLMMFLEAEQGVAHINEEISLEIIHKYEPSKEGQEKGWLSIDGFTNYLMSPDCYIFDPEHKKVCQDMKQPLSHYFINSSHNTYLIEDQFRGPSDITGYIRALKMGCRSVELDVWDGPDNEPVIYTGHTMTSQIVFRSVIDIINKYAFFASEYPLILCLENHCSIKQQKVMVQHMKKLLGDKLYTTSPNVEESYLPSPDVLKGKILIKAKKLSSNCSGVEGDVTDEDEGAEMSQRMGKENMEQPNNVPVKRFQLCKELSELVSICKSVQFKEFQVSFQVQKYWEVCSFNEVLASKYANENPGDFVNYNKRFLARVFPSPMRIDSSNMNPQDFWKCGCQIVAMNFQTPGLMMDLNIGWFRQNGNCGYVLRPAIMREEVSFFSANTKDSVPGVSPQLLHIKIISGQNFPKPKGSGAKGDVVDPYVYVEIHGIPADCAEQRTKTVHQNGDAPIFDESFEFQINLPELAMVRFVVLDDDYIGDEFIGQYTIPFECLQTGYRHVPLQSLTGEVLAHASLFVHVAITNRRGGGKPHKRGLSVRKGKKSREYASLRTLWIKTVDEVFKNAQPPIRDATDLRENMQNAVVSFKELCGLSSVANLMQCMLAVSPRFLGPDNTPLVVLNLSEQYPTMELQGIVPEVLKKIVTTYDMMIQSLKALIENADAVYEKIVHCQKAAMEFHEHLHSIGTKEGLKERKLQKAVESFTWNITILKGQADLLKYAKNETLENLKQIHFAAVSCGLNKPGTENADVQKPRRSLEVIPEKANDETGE
UniProt Q9ULJ3: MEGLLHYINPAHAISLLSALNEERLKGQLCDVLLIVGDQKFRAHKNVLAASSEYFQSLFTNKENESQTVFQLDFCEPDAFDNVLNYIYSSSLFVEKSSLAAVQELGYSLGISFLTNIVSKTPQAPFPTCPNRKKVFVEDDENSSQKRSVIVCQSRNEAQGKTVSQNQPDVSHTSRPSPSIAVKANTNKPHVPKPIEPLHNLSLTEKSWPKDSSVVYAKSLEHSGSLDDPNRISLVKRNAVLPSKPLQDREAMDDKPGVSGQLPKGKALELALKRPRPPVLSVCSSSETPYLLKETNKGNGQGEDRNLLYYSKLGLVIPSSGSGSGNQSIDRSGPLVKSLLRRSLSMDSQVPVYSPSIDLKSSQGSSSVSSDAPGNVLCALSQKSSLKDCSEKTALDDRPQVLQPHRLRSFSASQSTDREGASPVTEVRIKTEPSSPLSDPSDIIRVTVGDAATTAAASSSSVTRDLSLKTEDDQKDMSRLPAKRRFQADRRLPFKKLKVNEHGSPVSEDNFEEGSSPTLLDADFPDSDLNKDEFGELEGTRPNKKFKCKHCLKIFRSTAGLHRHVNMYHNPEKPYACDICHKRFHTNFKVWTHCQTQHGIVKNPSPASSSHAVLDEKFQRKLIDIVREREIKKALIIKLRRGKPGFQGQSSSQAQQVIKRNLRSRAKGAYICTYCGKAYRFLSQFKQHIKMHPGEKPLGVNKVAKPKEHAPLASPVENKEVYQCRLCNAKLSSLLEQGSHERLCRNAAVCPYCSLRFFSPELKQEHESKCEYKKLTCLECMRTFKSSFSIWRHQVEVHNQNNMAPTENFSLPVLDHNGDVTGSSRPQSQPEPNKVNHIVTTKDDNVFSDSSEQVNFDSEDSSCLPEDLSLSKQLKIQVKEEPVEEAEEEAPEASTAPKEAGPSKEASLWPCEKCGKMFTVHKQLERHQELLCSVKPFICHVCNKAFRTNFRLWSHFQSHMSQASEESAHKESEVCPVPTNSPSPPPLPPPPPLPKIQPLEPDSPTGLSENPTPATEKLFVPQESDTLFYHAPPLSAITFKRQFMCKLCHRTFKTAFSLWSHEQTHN
UniProt Q9UNL2: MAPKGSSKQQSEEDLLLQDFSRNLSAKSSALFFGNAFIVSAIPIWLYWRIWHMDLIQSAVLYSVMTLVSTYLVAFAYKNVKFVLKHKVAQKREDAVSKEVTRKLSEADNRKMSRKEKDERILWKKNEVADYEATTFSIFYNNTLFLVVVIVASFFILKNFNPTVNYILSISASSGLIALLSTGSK
UniProt Q9UHJ3: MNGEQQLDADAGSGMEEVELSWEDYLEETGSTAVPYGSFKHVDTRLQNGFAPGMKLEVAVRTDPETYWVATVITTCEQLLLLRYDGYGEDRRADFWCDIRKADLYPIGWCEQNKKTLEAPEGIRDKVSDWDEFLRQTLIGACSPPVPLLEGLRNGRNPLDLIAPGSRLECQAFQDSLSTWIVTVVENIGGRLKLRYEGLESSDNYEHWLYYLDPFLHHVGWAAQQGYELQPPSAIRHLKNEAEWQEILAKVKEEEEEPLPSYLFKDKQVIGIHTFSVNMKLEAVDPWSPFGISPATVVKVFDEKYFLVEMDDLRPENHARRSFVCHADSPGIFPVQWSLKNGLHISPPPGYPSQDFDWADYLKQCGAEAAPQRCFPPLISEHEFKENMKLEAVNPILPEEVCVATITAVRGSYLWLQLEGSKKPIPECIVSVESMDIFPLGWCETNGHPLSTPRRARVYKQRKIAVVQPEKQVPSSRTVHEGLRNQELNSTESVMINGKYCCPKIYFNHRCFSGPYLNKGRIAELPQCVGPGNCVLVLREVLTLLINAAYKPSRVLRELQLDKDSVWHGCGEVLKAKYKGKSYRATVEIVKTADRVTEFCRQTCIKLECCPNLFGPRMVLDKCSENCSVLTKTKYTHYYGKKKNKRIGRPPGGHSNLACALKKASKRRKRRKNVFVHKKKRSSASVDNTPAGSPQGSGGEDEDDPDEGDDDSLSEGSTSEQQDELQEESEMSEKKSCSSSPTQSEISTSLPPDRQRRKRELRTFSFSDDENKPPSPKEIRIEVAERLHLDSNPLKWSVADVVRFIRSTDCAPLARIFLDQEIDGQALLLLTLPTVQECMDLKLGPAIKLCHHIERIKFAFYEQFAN
UniProt Q9UIV1, whole entry: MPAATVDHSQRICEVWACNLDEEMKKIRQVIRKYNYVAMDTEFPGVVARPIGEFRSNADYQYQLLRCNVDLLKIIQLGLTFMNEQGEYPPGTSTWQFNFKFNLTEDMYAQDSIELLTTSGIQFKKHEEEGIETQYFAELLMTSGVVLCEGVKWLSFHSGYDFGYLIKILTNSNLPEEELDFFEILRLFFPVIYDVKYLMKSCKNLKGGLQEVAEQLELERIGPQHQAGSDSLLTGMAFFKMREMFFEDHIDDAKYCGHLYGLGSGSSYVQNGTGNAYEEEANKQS
UniProt Q9UIU6: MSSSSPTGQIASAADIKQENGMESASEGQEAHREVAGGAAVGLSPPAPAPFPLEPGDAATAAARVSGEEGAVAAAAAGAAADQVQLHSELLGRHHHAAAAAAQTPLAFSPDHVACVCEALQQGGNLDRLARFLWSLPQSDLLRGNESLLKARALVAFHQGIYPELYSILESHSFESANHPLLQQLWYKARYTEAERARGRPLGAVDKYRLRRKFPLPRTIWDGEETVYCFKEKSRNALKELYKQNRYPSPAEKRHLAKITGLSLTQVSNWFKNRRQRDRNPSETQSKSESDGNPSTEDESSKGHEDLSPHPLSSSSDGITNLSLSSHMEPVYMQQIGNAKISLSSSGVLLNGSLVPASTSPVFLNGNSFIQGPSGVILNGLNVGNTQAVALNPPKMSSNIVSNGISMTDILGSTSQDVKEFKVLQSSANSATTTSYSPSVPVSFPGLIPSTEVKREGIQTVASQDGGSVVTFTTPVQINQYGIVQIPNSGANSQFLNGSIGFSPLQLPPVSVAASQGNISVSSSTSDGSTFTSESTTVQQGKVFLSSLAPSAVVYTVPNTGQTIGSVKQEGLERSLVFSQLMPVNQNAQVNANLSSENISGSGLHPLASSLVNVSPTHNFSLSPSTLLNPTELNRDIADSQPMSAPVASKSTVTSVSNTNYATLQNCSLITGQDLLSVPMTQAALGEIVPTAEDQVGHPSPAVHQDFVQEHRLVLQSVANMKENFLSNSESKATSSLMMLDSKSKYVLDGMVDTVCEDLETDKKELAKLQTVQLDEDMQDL

Compound: Cc1nc(Nc2ncc(C(=O)Nc3c(C)cccc3Cl)s2)cc(N2CCN(CCO)CC2)n1 [dasatinib]
Assay: log2 fold change of tryptic peptide abundance, ligand vs vehicle (limited proteolysis) (log2 ratio); higher = more trypsin-susceptible (destabilized)
Details: ligand concentration: 5 uM; sample: K562 cleared lysate

| Target | log2 fold change |
| --- | --- |
| VPS4A (peptide sequence: ATEEDKAK, peptide start residue: 16) (UniProt Q9UN37) | 0.483 |
| LEF1 (peptide sequence: LQESASGTGPR, peptide start residue: 383) (UniProt Q9UJU2) | -0.209 |
| UniProt Q9UPY6 (peptide sequence: MLQDTEDK, peptide start residue: 165) | -0.331 |
| UniProt Q9UL18 (peptide sequence: LFCADKNER, peptide start residue: 713) | 0.58 |
| PLCL2 (peptide sequence: PKGSGAK, peptide start residue: 769) (UniProt Q9UPR0) | 0.0705 |
| UniProt Q9ULJ3 (peptide sequence: DSSVVYAK, peptide start residue: 211) | 0.219 |
| SSR3 (peptide sequence: KLSEADNR, peptide start residue: 103) (UniProt Q9UNL2) | 0.000753 |
| UniProt Q9UHJ3 (peptide sequence: STDCAPLAR, peptide start residue: 807) | 0.255 |
| CNOT7 (peptide sequence: EMFFEDHIDDAK, peptide start residue: 243) (UniProt Q9UIV1) | 0.121 |
| SIX4 (peptide sequence: QENGMESASEGQEAHR, peptide start residue: 18) (UniProt Q9UIU6) | 0.769 |
